Source: PubChem BioAssay AID2685 (National Center for Advancing Translational Sciences (NCATS), 2010)
The list shows a part of the results. Further columns of the screen follow, without active or inactive calls. Compounds called inactive in the main read-out are mostly missing here. The note in brackets gives the kind of curve behind each potency; many fits are weak.

Assay: qHTS Assay for Lipid Storage Modulators in Drosophila S3 Cells;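 for cell number change: cells counted by Cell Tracker Red CMTPX staining in the red channel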
Details: BODIPY lipid droplet fluorescence, 18-24 h; for cell number change: measured here: cell count max response, cells fed with added oleic acid
Method in brief: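 Drosophila S3 cells got compounds at several concentrations plus oleic acid (400 uM solution). Laser-scanning cytometry with 488 nm excitation read lipid droplets at 500-530 nm and cells at 575-640 nm. Percent activity was relative to 20 uM Triacsin C.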

[1] = measured here: lipid fluorescence (Fed channel) AC50, cells fed with added oleic acid
[2] = measured here: cell number channel AC50, cells fed with added oleic acid

Row | SMILES | cell number change [%] | AC50 [1] | AC50 [2]
1 | CC1(C)CNc2cc(N)ccc2S1 | -13.1 | 0.00461 µM [falling, full curve, poor fit] | –
2 | O=c1[nH]c(C2CCN(S(=O)(=O)c3ccc4c(c3)OCCO4)CC2)nc2c1nnn2Cc1cccc(F)c1 | 4.17 | – | –
3 | CCOC(=O)N1CCC(Nc2nc3ccccc3nc2NS(=O)(=O)c2ccc(Cl)cc2)CC1 | – | 1.3 µM [rising, partial curve] | 1.3 µM [rising, partial curve]
4 | CCOC(=O)c1[nH]c2ccc(OC)cc2c1NC(=O)CCN1CCC(C)CC1 | 14.9 | – | –
5 | Cc1cc(Nc2nc3ccccc3nc2Cl)n(-c2ccccc2)n1 | 30.2 | 18.4 µM [rising, single point] | 0.092 µM [rising, full curve, poor fit]
6 | COc1ccc(NC(=O)c2cc(C)no2)cc1Cl | 39.5 | – | 23.1 µM [rising, single point]
7 | O=C(NCc1cccnc1)c1cccc(OC2CCN(Cc3ccc(CO)o3)CC2)c1 | 17.9 | – | 0.058 µM [rising, full curve, poor fit]
8 | CCc1cc(CN2CCOCC2)c(NC(=O)c2ccccc2)s1 | 1.19 | 6.51 µM [rising, partial curve, poor fit] | –
9 | O=C1C2C3C=CC(CO)(O3)C2C(=O)N1c1ccccc1-c1ccccc1 (stereo not drawn) | -91.1 | 8.2 µM [falling, partial curve] | 8.2 µM [falling, partial curve]
10 | Cc1[nH]c2ccccc2c1C(=O)C(C)OC(=O)c1ccc([N+](=O)[O-])o1 (stereo not drawn) | -69 | – | –
11 | COc1ccc(OC)c(NC(=O)c2ccc(CSc3ncccn3)cc2)c1 | 6.23 | – | –
12 | CCc1ccccc1NC(=O)c1ccc(-c2csc(C)n2)cc1 | 2.36 | 8.2 µM [rising, partial curve] | –
13 | O=C(Nc1ccccc1Cl)N1CCCN(c2nc(-c3ccccc3)ns2)CC1 | 10.4 | 0.116 µM [falling, full curve, poor fit] | –
14 | COC(=O)c1cccc(NC(=O)c2onc3c2CCCC3)c1 | 41.2 | – | 20.6 µM [rising, single point]
15 | CCCC(=O)NC(=S)Nc1ccc(NC(=O)c2cccs2)cc1 | -19.1 | – | –
16 | O=S1(=O)CC=C(CSC(=S)NC2CCS(=O)(=O)C2)C1 (stereo not drawn) | -23.8 | 9.2 µM [falling, partial curve] | –
17 | CC1C2CC(CC1(C)C)N(C(=O)Nc1ccc3nccnc3c1)C2 (stereo not drawn) | -9.34 | 18.4 µM [rising, single point] | –
18 | COc1ccc2[nH]c(=O)c(C(=O)O)cc2c1 | -1.59 | 0.731 µM [falling, single point] | –
19 | COc1cc(C(=O)NCc2nnc(SCC(=O)Nc3nc4ccccc4s3)o2)cc(OC)c1OC | -2.59 | 29.1 µM [rising, single point] | –
20 | Cc1ccc(-n2c(Cc3cccn3C)nnc2SCC(=O)Nc2nnc(C)s2)cc1 | -28.9 | 9.2 µM [falling, partial curve, poor fit] | –
21 | CCCCOC(=O)c1ccc(OC(=O)N2CCOCC2)cc1 | 17.6 | 0.184 µM [rising, full curve, poor fit] | –
22 | Nc1nc(N2CCCCC2)nc2ccccc12 | 59.8 | 6.51 µM [rising, single point] | 23.1 µM [rising, single point]

Row | SMILES | cell number change [%] | AC50 [1] | AC50 [2]
23 | O=C(O)c1ccc2c(c1)nnn2C1CCCCC1 | 6.29 | – | –
24 | COc1cc2ccccc2cc1C(=O)Nc1ccccc1C | -5.26 | – | –
25 | CCOC(=O)Cc1csc(NC(=O)CN2C(=O)c3ccccc3C2=O)n1 | 3.27 | – | –
26 | N#Cc1ccc(N2C(=O)[C@@H]3C(C(=O)C(c4ccccc4)c4ccccc4)=NN[C@@H]3C2=O)cc1 | 9.41 | 14.6 µM [rising, partial curve, poor fit] | –
27 | N#Cc1ccccc1NC(=O)CN1CCN(c2ccccn2)CC1 | -16.7 | – | 0.461 µM [falling, full curve, poor fit]
28 | Cc1ccc(C(=O)Nc2cccc(S(=O)(=O)N3CCCCC3)c2)cc1[N+](=O)[O-] | -30.1 | 25.9 µM [falling, single point] | 20.6 µM [falling, single point]
29 | CCN(CC)C(=O)Cn1cc(C(=O)C(=O)NCc2cccnc2)c2ccccc21 | 40 | – | 0.82 µM [rising, full curve, poor fit]
30 | COc1ccc(C(C)C)cc1S(=O)(=O)Nc1ncn[nH]1 | 17.1 | – | –
31 | CCC(C)(C)c1ccc(OC(=O)c2cccnc2Cl)cc1 | 5.41 | – | –
32 | O=C(NCc1ccccc1)c1ccc2c(=O)n3c(nc2c1)CCCCC3 | 7.21 | 29.1 µM [falling, single point] | –
33 | COC(=O)C1CC(O)CN1C(=O)NC1CCCCC1 (stereo not drawn) | 10.2 | 25.9 µM [rising, single point] | –
34 | O=C(c1cccc(C(F)(F)F)c1)C1CCCN(C(=O)C2CCOCC2)C1 (stereo not drawn) | – | – | 2.59 µM [rising, partial curve]
35 | Cc1cc(C)cc(OCC(=O)NNC(=O)c2cc3ccccc3o2)c1 | 0.481 | 6.51 µM [rising, single point] | –
36 | O=C(Nc1ccc2c(c1)OCO2)C1CCN(C(=O)c2cccs2)CC1 | 110 | 1.84 µM [rising, single point] | 18.4 µM [rising, partial curve]
37 | O=C(CC1Nc2ccccc2NC1=O)c1ccccc1 (stereo not drawn) | 76.9 | – | 29.1 µM [rising, single point]
38 | O=C(Nc1cccc2c1C(=O)NC2=O)c1ccc(N2C(=O)CCC2=O)cc1 | -23 | 6.51 µM [falling, single point] | –
39 | Cc1ccc(NC(=S)N(CCN(C)C)Cc2cccs2)cc1C | 48.2 | 1.46 µM [rising, full curve] | 4.11 µM [rising, full curve]
40 | Cc1ccc(C)c2sc(NC(=O)c3nc4ccccc4s3)nc12 | 44.3 | 29.1 µM [rising, single point] | 29.1 µM [rising, single point]
41 | CC1(C)Cc2c(sc(NC(=O)C(=O)NCCCN3CCOCC3)c2C(N)=O)CO1 | -7.37 | 0.58 µM [rising, single point] | –
42 | CCN(CC)CCNC(=O)C(=O)NCC1OCCN1C(=O)c1ccc2c(c1)OCO2 (stereo not drawn) | 11.3 | – | –
43 | CN1CCN(S(=O)(=O)c2cccc(C(=O)Nc3cc(C(F)(F)F)ccc3N3CCCCC3)c2)CC1 | – | 32.6 µM [rising, single point] | –
44 | Cc1ccc2c(c1)C(c1ccc(F)cc1)N(C(=O)c1cc3ccccc3oc1=O)CC(=O)N2 (stereo not drawn) | -8.4 | – | –

Row | SMILES | cell number change [%] | AC50 [1] | AC50 [2]
45 | CCOc1ccc(C(=O)NC2CCN(S(=O)(=O)c3ccccc3)CC2)cc1 | -10.4 | 29.1 µM [rising, partial curve] | –
46 | Cc1cc(C)cc(NC(=O)C2CCN(c3nc(C)cc(C)n3)CC2)c1 | 3.21 | 5.17 µM [rising, single point] | –
47 | COc1cccc(NC(=O)c2ccccc2OCc2c(C)noc2C)c1 | 50 | – | 20.6 µM [rising, single point]
48 | c1ccc(Cn2cc(-c3cccnc3)cn2)cc1 | -18.9 | – | –
49 | CCn1nc(C)c(CNC(=O)C2CCC(=O)N(Cc3cccc(F)c3)C2)c1C (stereo not drawn) | 10.4 | – | 1.16 µM [rising, full curve, poor fit]
50 | CC(=O)N/C(=C/C(C)C)c1ccccc1 | 6.02 | – | –
51 | Cc1ccc(C(=O)N2CCN(C(=O)CN3CCOCC3)C2)cc1 | 1.79 | 1.64 µM [falling, partial curve] | –
52 | COc1cc(OC)c(NC(=O)CSc2nc3ccncc3[nH]2)cc1Cl | 6.42 | 29.1 µM [rising, single point] | –
53 | CC1(C)C(=O)OC(C(=O)c2ccccc2)C2(CCCCC2)C1=O (stereo not drawn) | – | 6.51 µM [falling, single point] | –
54 | COc1cc(NS(=O)(=O)c2ccc(C)c(C)c2)c(OC)cc1Cl | 20.5 | – | –
55 | CNC(=S)NNC(=O)c1cn(C)nc1C | 25.8 | 32.6 µM [rising, single point] | –
56 | CCN(CC(=O)Nc1c(F)cccc1F)C(=O)c1ccccn1 | 0.519 | 0.326 µM [falling, full curve] | –
57 | Cc1nc2ccc(NC(=S)N3CCOCC3)cc2nc1C | -42.7 | – | –
58 | CCc1c(C)nc2ncnn2c1N1CCCC(C(=O)NCc2cccs2)C1 (stereo not drawn) | -13.3 | 29.1 µM [falling, single point] | –
59 | COc1ccc(C2(O)CCN(CC(=O)Nc3nc(-c4ccccc4)cs3)CC2)cc1 | – | 23.1 µM [rising, single point] | 0.58 µM [rising, single point]
60 | CCC(NC(=S)NCc1ccc(F)cc1)c1ccc(C(C)C)cc1 (stereo not drawn) | – | 0.58 µM [rising, single point] | 0.164 µM [rising, full curve, poor fit]
61 | CCC1COCCS(=O)(=O)N1Cc1cccc(Cl)c1 (stereo not drawn) | -11.3 | 4.11 µM [falling, single point] | –
62 | CCOc1ccc(N=Nc2c(=O)[nH]n3c(=O)cc(C)[nH]c23)cc1 | – | 29.1 µM [rising, single point] | –
63 | COc1ccc2c(=O)cc(-c3cccnc3)oc2c1OC | 13.9 | 4.11 µM [rising, full curve, poor fit] | –
64 | COC(=O)COc1ccc(S(=O)(=O)NCc2ccc3c(c2)OCO3)cc1 | 16.4 | 10.3 µM [rising, single point] | –
65 | CC(=O)CC(c1ccccc1)S(=O)(=O)c1ccc(C)cc1 (stereo not drawn) | – | 29.1 µM [rising, single point] | –
66 | COc1cc(CNc2ccc(CNc3ncn[nH]3)cc2)cc(Cl)c1OCc1ccccc1 | 20.5 | 29.1 µM [rising, single point] | –

2 compounds picked at random from the list so far:
Row | SMILES | cell number change [%] | AC50 [1] | AC50 [2]
64 | COC(=O)COc1ccc(S(=O)(=O)NCc2ccc3c(c2)OCO3)cc1 | 16.4 | 10.3 µM [rising, single point] | –
48 | c1ccc(Cn2cc(-c3cccnc3)cn2)cc1 | -18.9 | – | –
